Data source: PubChem BioAssay AID504793 (Drosophila RNAi Screening Center, 2011)

Screen: 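Knock-downs allowing continued mitosis even though DNA is damaged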 (primary screen)
System: Drosophila S2R+ cells
Reagents: long dsRNA against Drosophila genes, about 0.25 µg dsRNA per well
Time to read-out: 4 days of dsRNA, then 4 hours of drug before read-out
Treatment: doxorubicin 0.5 µM for 4 hours to cause double-strand breaks, in cells also given a low, harmless dose of dsRNA against nbs to sensitise the assay
Detection: 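Mitotic index as the number of phospho-histone H3-positive cells in each well following doxorubicin, given as raw counts without normalisation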
Reading the numbers: mitotic cells: higher = more cells in mitosis, weaker G2 arrest
Hit rule: 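Genes are called active only when high mitotic counts were reproduced with independent dsRNAs and mitosis was checked for delay without damage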
Meaning of the calls: active = confirmed in follow-up tests; inactive = not confirmed
In all, the deposit lists about 23,000 reagents; shown is a random part of those with a known target gene and a result. Over the whole deposit, 62 (0.27%) got an active call. 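Calls come from follow-up tests whose scores are not deposited, so confirmed genes may have low counts here; counts are not normalised per plate.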 Raw values are not corrected between plates. A number with no mark means an inactive call. A plus sign joins genes that one reagent is predicted to hit.

gene,dsRNA,"mitotic cells, replicate 1","mitotic cells, replicate 2"
Fmo-2,DRSC04983,4,
CG42490 (retired record),DRSC01649,6,
CG42490 (retired record),DRSC28297,8,
pum,DRSC12726,9,
pum,DRSC17038,3,
pum,DRSC22758,10,
pum,DRSC22794,14,
pum,DRSC23430,4,
VhaM9.7-c,DRSC08204,8,
VhaM9.7-c,DRSC30083,3,
Slob (retired record),DRSC03436,7,
AOX2,DRSC15338,5,
dock,DRSC00812,7,
dock,DRSC27610,4,
Eogt,DRSC00727,6,
Eogt,DRSC26180,1,
CG11170,DRSC04090,11,
CG11170,DRSC29191,1,
tut,DRSC08909,8,
CG14720,DRSC14942,4,
CG13220,DRSC06342,8,
mRpS6,DRSC08470,5,
mRpS6,DRSC29280,3,
Irk3,DRSC02047,3,
Dera,DRSC07207,6,
Dera,DRSC21336,8,
Dera,DRSC26996,5,
hts,DRSC07629,4,
hts,DRSC28097,6,
CG31678,DRSC02618,4,
CG31678,DRSC02619,3,

Just “mitotic cells, replicate 1” (8 entries from above):
Slob (retired record) [DRSC03436] = 7
AOX2 [DRSC15338] = 5
dock [DRSC00812] = 7
dock [DRSC27610] = 4
Eogt [DRSC00727] = 6
Eogt [DRSC26180] = 1
CG11170 [DRSC04090] = 11
CG11170 [DRSC29191] = 1

The list goes on.
gene,dsRNA,"mitotic cells, replicate 1","mitotic cells, replicate 2"
CG11529,DRSC09839,6,
Gr98d,DRSC14571,18,
Gr98d,DRSC24547,7,
CG13255,DRSC11702,12,
Antp,DRSC23104,11,
Antp,DRSC26749,4,
CG5131,DRSC02817,3,
SmydA-4,DRSC19390,11,
SmydA-4,DRSC21866,9,
SmydA-4,DRSC26517,3,
CG17560,DRSC15242,4,
veg (retired record),DRSC07714,3,
CG11723,DRSC00324,6,
CG11723,DRSC24890,11,
Tes,DRSC06996,7,
Lrch,DRSC02996,4,
Lrch,DRSC29145,5,
CG15343,DRSC18028,7,
CG17129,DRSC08508,8,
CG17404,DRSC15234,5,15
knrl,DRSC23245,8,
knrl,DRSC28310,3,
CG6788,DRSC20007,15,
CG6788,DRSC24906,10,
boca,DRSC06408,5,
tou,DRSC22710,7,
tou,DRSC27228,9,
Cyp12a5,DRSC16621,9,
Cyp12a5,DRSC24826,5,
CG15147,DRSC02447,3,8
CG15147,DRSC02448,3,
CG15147,DRSC27255,6,
SK,DRSC17387,6,
SK,DRSC17887,15,
SK,DRSC17888,11,
SK,DRSC18353,11,
SK,DRSC27622,5,
Usp12-46,DRSC16175,5,
CG2147,DRSC18211,8,
Ccs,DRSC06692,8,
CG2201,DRSC03721,3,
Cox10,DRSC02804,6,
Syn1 + CG7370,DRSC22768,11,
Syn1 + CG7370,DRSC27632,4,
